Test results published in article PMC7819943, “Rice protein-binding microarrays: a tool to detect cis-acting elements near promoter regions in rice”.
The list shows a part of the results.

The chains behind the UniProt entries cited, without tags or fusion partners.
UniProt Q0JBA9, entry or part of it: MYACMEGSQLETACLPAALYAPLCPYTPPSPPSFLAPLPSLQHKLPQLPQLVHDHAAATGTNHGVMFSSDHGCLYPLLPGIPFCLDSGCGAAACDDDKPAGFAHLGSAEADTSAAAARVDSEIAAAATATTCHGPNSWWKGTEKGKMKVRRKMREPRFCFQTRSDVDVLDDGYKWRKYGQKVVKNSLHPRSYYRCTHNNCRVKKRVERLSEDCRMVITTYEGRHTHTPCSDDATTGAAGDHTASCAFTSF

biological target: OsWRKY34 (Oryza sativa, UniProt Q0JBA9 1-250); test: protein-binding microarray (RPBM); PBS, 2% BSA, 51.3 ng/ul salmon testes DNA, 50 uM zinc acetate, 200 nM TF, 25 C, 1 h; high values mean tight binding; settings: protein: recombinant; tags: N-terminal polyhistidine and DsRed monomer fusion (pET32a); label: CyDye5-dUTP incorporated in the synthesized complementary strand; 3' TTTTT single-stranded linker to array surface; dsDNA, one strand shown
Method in brief: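 Per-feature fluorescence intensity (arbitrary units), read on an Axon 4000B scanner, is the binding signal. Transcription factors carrying an N-terminal polyhistidine tag and DsRed fusion were expressed in E. coli BL21-CodonPlus and purified on Ni–NTA. A custom Agilent array, made double-stranded by primer extension with Cy5-dUTP and blocked with 2% BSA, was incubated with 200 nM protein in PBS, 2% BSA, salmon testes DNA and 50 µM zinc acetate at 25 °C for 1 h and then washed.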

Sequence | binding signal
CTCTATCTCATCCCAGGGGCAATCTCGTAAATTTACCCGACGGAGTCACCTAGTGCAG | 9000 fluorescence intensity (a.u.)
ATAACATCATTTTCTCCTCTCTTGTTTTGAATTTTATTTTCGGAGTCACCTAGTGCAG | 8640 fluorescence intensity (a.u.)
TTTTTAACATTGGGATGCTTGTCCATTGTTTTTTTCTTTTCGGAGTCACCTAGTGCAG | 8040 fluorescence intensity (a.u.)
AAATGAGCTAAGTTTGACTTTTTCAAAATATATTAATAGTCGGAGTCACCTAGTGCAG | 15400 fluorescence intensity (a.u.)
CATGGGCTAATGTCCTTTTTTTATATATTTTTTTTGCCCTCGGAGTCACCTAGTGCAG | 8990 fluorescence intensity (a.u.)
AACCAAACAACCGTTGTCTTGGCACAGCTGTCGCAACCTGCGGAGTCACCTAGTGCAG | 8200 fluorescence intensity (a.u.)
AGGATGGGGATAGGGTTGATTTGTAATAGGGGTATTTTGGCGGAGTCACCTAGTGCAG | 15000 fluorescence intensity (a.u.)
TTTTTTCTTTCATCTCTCTCGTTTGCCACACGTCCTCTCTCGGAGTCACCTAGTGCAG | 12000 fluorescence intensity (a.u.)
TCCACTCTCTCTATATCTTGTGTGGCGCACTTGAAGCTTACGGAGTCACCTAGTGCAG | 8890 fluorescence intensity (a.u.)
AAGGGAGCAGCATTTTCCGGCCGTGTTTAGTTCCAAAGTTCGGAGTCACCTAGTGCAG | 9810 fluorescence intensity (a.u.)
GTGTCTTGGTGGTTGTTGTCACTTGAGAGCGGTTCAATTCCGGAGTCACCTAGTGCAG | 11000 fluorescence intensity (a.u.)
CAATCTTGCAGCTTTTCATCTCTTGTTCCTCCTAGATTTTCGGAGTCACCTAGTGCAG | 8240 fluorescence intensity (a.u.)
GCGAAACATCGTGGGTTTTTTTCTTGCCGGAGGAGGGGCACGGAGTCACCTAGTGCAG | 11300 fluorescence intensity (a.u.)
TGCACACTCCATGTTGCCCGATCGCGAAGTACTATAATAACGGAGTCACCTAGTGCAG | 8480 fluorescence intensity (a.u.)
ACCACAACCTTAGTTTTGTTTGTCATATCATCTCTGTTACCGGAGTCACCTAGTGCAG | 10300 fluorescence intensity (a.u.)
CCCGTTTTCTCAGCCCTAGTCATCCCCACTTGCCCGGATCCGGAGTCACCTAGTGCAG | 9080 fluorescence intensity (a.u.)
TCGCCACTGCCGCCGCTCCCGACCGCCGCCGCCGCTCTGGCGGAGTCACCTAGTGCAG | 10400 fluorescence intensity (a.u.)
TCTGAGTTACTTCCAAGTTGACTAGTTACCTCTTACTACCCGGAGTCACCTAGTGCAG | 8220 fluorescence intensity (a.u.)
AGGGGAGGTAGGTAAGAAGATTGAACAGTGGAGGGTTGTACGGAGTCACCTAGTGCAG | 9840 fluorescence intensity (a.u.)
TCTTTCTTTTTTATACCTTTTTTCTCTTTAACTTATCCTCCGGAGTCACCTAGTGCAG | 9650 fluorescence intensity (a.u.)
ACGAGTCCGTTTCTAGGGTTAGGGTTAGTGGCGGCGGCGGCGGAGTCACCTAGTGCAG | 8580 fluorescence intensity (a.u.)

Sequence | binding signal
CGGTCAAACGTTGGGCACGGATATCCACGGCTACACTTATCGGAGTCACCTAGTGCAG | 9270 fluorescence intensity (a.u.)
TTCCATTTCTTCCATCCGTCGCCGGGGCTCCCGCTCCTCTCGGAGTCACCTAGTGCAG | 8470 fluorescence intensity (a.u.)
TATATATGGGGTGTGTGTGTGTGTGTGATGGGTTAATCGACGGAGTCACCTAGTGCAG | 11200 fluorescence intensity (a.u.)
TTATATGCGCTCCTTCACATTCTTCCATGCTCCATATAGCCGGAGTCACCTAGTGCAG | 8460 fluorescence intensity (a.u.)
CGGCTCGATCGCAACTTCACATCGCGCATCCACTCCACACCGGAGTCACCTAGTGCAG | 9300 fluorescence intensity (a.u.)
ACAGTGGAGACCCGGCCCCTTCAGTTGCCACTTGCCAGACCGGAGTCACCTAGTGCAG | 8630 fluorescence intensity (a.u.)
GTGCTGTGATTGGCCGCGCGGGATTTCCTGGGCGGGCGGGCGGAGTCACCTAGTGCAG | 15500 fluorescence intensity (a.u.)
GGTAGTGGTGCCGGCCTTTTTATCCTGGCACTTGGTGCTGCGGAGTCACCTAGTGCAG | 8490 fluorescence intensity (a.u.)
GAAAGCCTCCATTGCCAGTTTCTTCACCTGCTTTGCTTAACGGAGTCACCTAGTGCAG | 11400 fluorescence intensity (a.u.)
CCCGTTCTCGCGCCCATCGATCCACCCCACCAAAACCCCACGGAGTCACCTAGTGCAG | 8790 fluorescence intensity (a.u.)
GCCCGTCAGCCCAAAAGTTGACGACTTCCCGTCGCGCTAGCGGAGTCACCTAGTGCAG | 8160 fluorescence intensity (a.u.)
CATTTCATCGAACACCTTGCAATCACCCTCTCACCACCGCCGGAGTCACCTAGTGCAG | 9400 fluorescence intensity (a.u.)
CCCAAAACGGCCTCGTCTCACCTTCTCTCTCGCACCCGCACGGAGTCACCTAGTGCAG | 9030 fluorescence intensity (a.u.)
TATTGTCTGGGGTTTGCTTATTGGCTTTTCAGGCCATGTCCGGAGTCACCTAGTGCAG | 9320 fluorescence intensity (a.u.)
GCTCCAATAGGAAGCGAGTAAATGACACACAACAAGTTACCGGAGTCACCTAGTGCAG | 13600 fluorescence intensity (a.u.)
TGTCTTAATTTCGTGGAAGGCCATAGCGGAGAGATCAAAACGGAGTCACCTAGTGCAG | 17400 fluorescence intensity (a.u.)
ACGGTCGATTCCCTCTGCCTGCCCTCTGCTTTACTTGACCCGGAGTCACCTAGTGCAG | 9870 fluorescence intensity (a.u.)
TTGGCTGATGTCTATTGTTGAATGTCAGAGCTGCTTTTCGCGGAGTCACCTAGTGCAG | 9120 fluorescence intensity (a.u.)
TCTATCGCTTTACTCTCTCTGTCCCTGGCTTTCTTCGTCTCGGAGTCACCTAGTGCAG | 13400 fluorescence intensity (a.u.)
TCCATCTCTGGATTTCTGTCCATATTCTCTTTGTTAGCCTCGGAGTCACCTAGTGCAG | 9640 fluorescence intensity (a.u.)
AATACTGCTGGTATTAGCTAGGCGTTGATAGTGGCCGGGGCGGAGTCACCTAGTGCAG | 8660 fluorescence intensity (a.u.)

Pulled one by one from the list above (3):
Sequence | binding signal
AACCAAACAACCGTTGTCTTGGCACAGCTGTCGCAACCTGCGGAGTCACCTAGTGCAG | 8200 fluorescence intensity (a.u.)
TGCACACTCCATGTTGCCCGATCGCGAAGTACTATAATAACGGAGTCACCTAGTGCAG | 8480 fluorescence intensity (a.u.)
GAAAGCCTCCATTGCCAGTTTCTTCACCTGCTTTGCTTAACGGAGTCACCTAGTGCAG | 11400 fluorescence intensity (a.u.)

Given comma-delimited: entries from further up.
Sequence,binding signal
ACAGTGGAGACCCGGCCCCTTCAGTTGCCACTTGCCAGACCGGAGTCACCTAGTGCAG,8630 fluorescence intensity (a.u.)
GTGCTGTGATTGGCCGCGCGGGATTTCCTGGGCGGGCGGGCGGAGTCACCTAGTGCAG,15500 fluorescence intensity (a.u.)

Further entries follow.

Sequence | binding signal
CCCTCTCTCTCTTTCGTTTTTTTTGGATTTTTAGTGAATACGGAGTCACCTAGTGCAG | 9040 fluorescence intensity (a.u.)
TTCTTGGGAGATTTGGATCATATAACCTCCGTTTAGATTTCGGAGTCACCTAGTGCAG | 8940 fluorescence intensity (a.u.)
CGTCGCATTGTTCATCGGGTCCCTCGTGTCCATCCCTACACGGAGTCACCTAGTGCAG | 11600 fluorescence intensity (a.u.)
GGTTAGGGTCATCTCGCCACCACCCATTTTCCTCTCAAACCGGAGTCACCTAGTGCAG | 12200 fluorescence intensity (a.u.)
CAATATTTTATCCCTAATCTTCTTATAGCCTGTATATTCTCGGAGTCACCTAGTGCAG | 10000 fluorescence intensity (a.u.)
AATTGACGACGTTGACCTCGCTGTTGAGCGTTGACCCGGCCGGAGTCACCTAGTGCAG | 13300 fluorescence intensity (a.u.)
TCTCGGGCTGGGCATCGCATCTTTAGAATTGATTGAGTGACGGAGTCACCTAGTGCAG | 9860 fluorescence intensity (a.u.)
CGCATCAACCAGACAGCCACTTTACCACTAACTACGCAATCGGAGTCACCTAGTGCAG | 8830 fluorescence intensity (a.u.)
TATACTTCCTCTATCATAGTTTTACACTGTTTATATTTAACGGAGTCACCTAGTGCAG | 8480 fluorescence intensity (a.u.)
TCCATTAGTCGCAACTGCCATGCATGATTCTGCACCTTGACGGAGTCACCTAGTGCAG | 8150 fluorescence intensity (a.u.)
ACCTTTCTGGCTTGGACGGAGGTGCCGTTTATCTCTACCACGGAGTCACCTAGTGCAG | 9050 fluorescence intensity (a.u.)
CCTACACTGTTGTTCTTTTAGATTGAGACGTCCGATTTTTCGGAGTCACCTAGTGCAG | 9000 fluorescence intensity (a.u.)
TGGTCTAGCGGCAAGCGTTCAACGTATTTGTCCCACCTAACGGAGTCACCTAGTGCAG | 8860 fluorescence intensity (a.u.)
ATCATCGCTTCTGATCAACCCATTCACCGGCACGGCCATGCGGAGTCACCTAGTGCAG | 10200 fluorescence intensity (a.u.)
CCCTTCGTCTCCGCCGCCGCCGGAATCGGGCCTCGCCATCCGGAGTCACCTAGTGCAG | 8210 fluorescence intensity (a.u.)
GCACCACCGTCTCCGCCTCCGCGCCGCCGCCGTCGTCTCCCGGAGTCACCTAGTGCAG | 11300 fluorescence intensity (a.u.)
TGTTTTTAGCTGCATTCTGCTATTCTTGTGGCAAACCAATCGGAGTCACCTAGTGCAG | 8820 fluorescence intensity (a.u.)
AGCTGTATTTCTTCAGTTTCATAAATAGTTTTGACCTTTGCGGAGTCACCTAGTGCAG | 8410 fluorescence intensity (a.u.)
TGTTATCCAAAGTACTGCAGGTCTGACCTCATGTTCTACTCGGAGTCACCTAGTGCAG | 10100 fluorescence intensity (a.u.)
TGGCAGCTTTGGTTCAACCTCGTCGATCTCTATCTCTCTCCGGAGTCACCTAGTGCAG | 8920 fluorescence intensity (a.u.)
TGCCGTGCCAACTGAGCACCCACGTTGCATCACCGCTTACCGGAGTCACCTAGTGCAG | 9900 fluorescence intensity (a.u.)

Sequence | binding signal
AATATTCGGCTCGTTTACTGTTTCTTTGTGTTTTGTTTCCCGGAGTCACCTAGTGCAG | 10900 fluorescence intensity (a.u.)
CAGCACCACCAGCTCTCGCCTCTTGCCAATGCCAATGTATCGGAGTCACCTAGTGCAG | 8390 fluorescence intensity (a.u.)
CTCAAAATCTCCGTCTGGTAATTAGTTTTCTGTGATTTTTCGGAGTCACCTAGTGCAG | 10200 fluorescence intensity (a.u.)
CTCTCGCGTTTCTTTTGCTGGATTGGGGCGTTCTTGGGAGCGGAGTCACCTAGTGCAG | 14500 fluorescence intensity (a.u.)
AATTGCGTATTCTACTCTATCTTTGTCAAATCACTCCACGCGGAGTCACCTAGTGCAG | 9120 fluorescence intensity (a.u.)
ATTTCTGCAGACCCATTTTGCTTTTGAAACACTGCTGATTCGGAGTCACCTAGTGCAG | 9790 fluorescence intensity (a.u.)
GCCTCATCTTTTCATTTATTCTTATGCTTATCAACCAAAACGGAGTCACCTAGTGCAG | 16100 fluorescence intensity (a.u.)
TGACTTTCTCGGATTTAATGCGTGACTTTTCATTCTTCCACGGAGTCACCTAGTGCAG | 10100 fluorescence intensity (a.u.)
TTCACTTTGGTCCAGGTTTTCTTACCTTCTACTCCCTCCGCGGAGTCACCTAGTGCAG | 11400 fluorescence intensity (a.u.)
CACTTCTGCACACTTCCACGGTAACATGTTTTACGGTTTTCGGAGTCACCTAGTGCAG | 12100 fluorescence intensity (a.u.)
CCCGCGTCAGCCCCGCCATCACCGGTCCATCGCCGCCCGCCGGAGTCACCTAGTGCAG | 9830 fluorescence intensity (a.u.)
ACTTTGGCACATTTCCATTTACCTGAGCCTACTATTCAAACGGAGTCACCTAGTGCAG | 9740 fluorescence intensity (a.u.)
GCTCGCACGTACGCTTCCTTCCGCTTGATCTGCTGCCAACCGGAGTCACCTAGTGCAG | 11100 fluorescence intensity (a.u.)
GTCGATTTGTTCTCATAAAATTTCCTCTTTTTTGTTTGTTCGGAGTCACCTAGTGCAG | 15200 fluorescence intensity (a.u.)
GAATATTTTCGGGTGGCATATCCTCTGAAGCTTCTGCAGCCGGAGTCACCTAGTGCAG | 8470 fluorescence intensity (a.u.)
ACATGTTCGTTTTTCTATTTCATTCTGAATGGGTTGTATTCGGAGTCACCTAGTGCAG | 9700 fluorescence intensity (a.u.)
TATAGGTATTCACTACCTTATCATTTATTCATACCTTGTTCGGAGTCACCTAGTGCAG | 8060 fluorescence intensity (a.u.)
CGCTCCGCCCACCACCCGCTGCCGCTTCATTTCACGCTGCCGGAGTCACCTAGTGCAG | 9230 fluorescence intensity (a.u.)
CCTTTTTTTTATATATACGTTGATATTATTTGTCCTTTTTCGGAGTCACCTAGTGCAG | 10000 fluorescence intensity (a.u.)
CTCGTCTCTTGCCGTCTTTTGTCCGCAAGTCTCGTGCTCTCGGAGTCACCTAGTGCAG | 8750 fluorescence intensity (a.u.)
CTCCTTTTCAATACCTGGGTAGGGGTTGGTAATTGGCAGGCGGAGTCACCTAGTGCAG | 10400 fluorescence intensity (a.u.)
